# Library screen at single concentrations

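Assay of Toxoplasma gondii numbers, read through their beta-galactosidase reporter with a colour substrate. Tested at 50 µM. The record gives no direction; the compounds picked for IC50 retests had high values, so higher reads as fewer parasites. Of about 18,000 compounds tested this way, about 170 (0.94%) reached 50% or more in at least one test.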

Results are given as percent effect.
The record does not define 0% and 100%; most values in the screen are far below 50% and negative numbers occur (in some assays of this library far below -100).
The compounds are a random part of those screened.

compound,Percent Effect
Cc1cccc(CC(=O)N2CCn3cnnc3C2)c1,26.59%
CCc1ccsc1C(=O)Nc1c(C(N)=O)n[nH]c1C,-0.02724%
CCN(CC1CCCO1)C(=O)CCCc1cn[nH]c1 (centres unmarked),-3.592%
CCOc1ccccc1CNCCSc1nnnn1C,1.515%
CC(C)CC(NC(=O)C1CC1)C(=O)N(C)C (centres unmarked),-13.74%
CN(CCCNc1ncc(C(N)=O)cc1Cl)S(C)(=O)=O,-3.33%
CN(C)CCCOc1ccc(CN)cc1,7.46%
CCn1cc(C(=O)Nc2ccccc2C(N)=O)c(C)n1,-16.11%
CC(C)Cc1nc(C#N)c(NCc2ccncc2)o1,5.049%
CC1=CCN(Cc2cccc(OCC(N)=O)c2)CC1,-3.752%
CN1CCN(Cc2nccn2C)[C@H]2CS(=O)(=O)C[C@H]21,0.771%
CCNCC(=O)Nc1cccc(OC)c1,0.5853%
Cc1oc(NC(=O)CSc2cnn[nH]2)c(C#N)c1C,-21.99%
COC(CNS(=O)(=O)N(C)C)c1cccc(Cl)c1 (centres unmarked),6.935%
Cc1cncc(C(=O)N2CCCC2C(C)(C)O)c1 (centres unmarked),98.37%
CC(C)CCC(=O)NCc1ccnc(N(C)C)c1,1.063%
N#CC1(NC(=O)CCSc2ccccn2)CCC1,0.351%
CNC(=O)c1cccc(NCc2c(C)noc2C)c1,-21.5%
CN1CCN(c2ccc(N)nc2)CC1,18.61%
CN(C)C(=O)NCCc1ccc(F)cc1,-6.674%
O=C(NCc1ccccc1)N1CCNCC(O)C1 (centres unmarked),2.706%
CC(=O)c1c[nH]c(C(=O)NCc2cccnc2)c1,0.2894%
COCCN1C(=O)c2ccccc2C1=O,3.858%
O=C(NCC1CCNCC1)OCc1ccccc1,2.588%
CN1CCN(C(=O)CN(CCC#N)CC2CCC2)CC1,-7.801%
CCNC(=O)c1ccc(=O)n(Cc2ccccc2)n1,-25.96%
CCN1CCN(C(=O)Nc2cc(C)ccc2OC)CC1,-14.73%
COc1ccc(Cl)cc1NCC(=O)N1CCSCC1,-34.1%
CCOC(=O)NC(O)C(=O)c1ccc(Cl)cc1 (centres unmarked),-10.46%
Cc1ccc(NC(=O)N2CCCC(N)C2)c(F)c1 (centres unmarked),5.989%
CC(C)CCC(=O)N[C@@H]1CN(C)C[C@H]1CN(C)C,-8.223%
COc1ccnc(NCc2ccco2)n1,17.54%
CCC(O)CCNS(=O)(=O)c1cnc2ccccc2c1 (centres unmarked),0.5073%
CC(N)(CO)C1CCCCC1 (centres unmarked),17.12%
CCS(=O)(=O)NCCNc1ccccc1,-2.964%
Cc1n[nH]c(SCCNC(=O)CC2C=CS(=O)(=O)C2)n1 (centres unmarked),9.381%
COCCC(=O)N(C)Cc1cccnc1OC,-22.91%
COc1cc(CN)c(Br)cn1,-7.792%
Cc1cccc(OCC(=O)NCCn2cncn2)c1C,-3.554%
CCc1cnc(CN(C(C)=O)C2CCNC2)o1 (centres unmarked),-3.387%
NC(=O)C1CNCCN1C1CC1 (centres unmarked),12.35%
NC(=O)c1ccc2sccc2c1,-9.649%
CC(C)c1nnsc1C(=O)N[C@@H]1COCC[C@H]1O,2.764%
Cc1c[nH]c(C(=O)N2C[C@@H](N(C)C)[C@H](C(C)C)C2)n1,0.2879%
COC(=O)c1ccc(NC2CCN(C)CC2)o1,11.33%
Cc1ccnc(NCCS(=O)(=O)NCC2CCC2)c1,-8.757%
c1ccc2oc(CN3CCNCC3)cc2c1,5.763%
COCC(=O)N1CCN(Cc2csc(C)n2)CC1,-3.183%
COCCN(C)Cc1ccc(C(=O)NC2CC2)cc1,5.263%
O=C(CCCc1ccccc1)NCc1ccccn1,2.077%
CN(C)C(CNC(=O)C1CC1)c1ccsc1 (centres unmarked),-0.9615%
Cc1cc(N)n(Cc2nc(C3CCOC3)no2)n1 (centres unmarked),4.421%
CNC(=O)c1ccc(CO)o1,9.927%
CC(=O)N1CCN(Cc2cn3cccc(C)c3n2)CC1,-19.37%
COC(=O)CNc1ccc(Cl)cc1C(N)=O,-28.46%
CC(C)[C@@H](CO)NC(=O)c1ccn(C2CCCC2)n1,2.24%
CCN(CC(C)C#N)C(=O)c1ccc(Br)o1 (centres unmarked),96.74%
COc1ccc(C(CN)CO)cc1 (centres unmarked),8.513%
O=C1NC[C@@H]2CNCC[C@H]12,-10.86%
O=S(=O)(NCc1cccs1)C1CCOC1 (centres unmarked),15.42%
Cc1ccc(C(=O)N2CCCN(C)CC2)nc1,1.372%
CC(=O)Nc1ccccc1C(=O)N(C)C,-18.18%
Cc1cnc(C(=O)N(C)c2ncccc2Br)cn1,4.469%
Cc1c(C(=O)N2CCNC(=O)C2)oc2ccc(Cl)cc12,-9.798%
COCC1(C(=O)N2CCC[C@@H]2C(N)=O)CCC1,23.35%
NCC1CCC2(CCCCC2)O1 (centres unmarked),4.576%
COCC(=O)NCc1cccc(Cn2ccnc2)c1,9.044%
O=C(NCC1CCOCC1)NC1CCCC1,7.573%
CCOC(=O)CNC1=NS(=O)(=O)c2ccccc21,-1.265%
OCC1CSc2ccccc2O1 (centres unmarked),33.69%
CN(CCc1ccccn1)CC(=O)NC1CC1,-8.353%
C1CC(N2CCN(CC3CC3)CC2)CCN1,3.77%
CC(C)c1nnc[nH]1,12.46%
COc1ccc(-c2nc(CCN)co2)cc1,-2.76%
CC(O)C1CCN(CCC(=O)NC(C)(C)C)CC1 (centres unmarked),-10.38%
Cc1ccnc(NCCNC(=O)CN2CCOC2=O)c1,37.27%
CN(C)CC[C@H](O)c1cccs1,0.8781%
CCCc1nc(C(=O)NC2CCCCNC2=O)cs1 (centres unmarked),24.65%
O=C(Cc1cscn1)N1CCCC1c1ccco1 (centres unmarked),9.554%
CC(C)(C)CCS(N)(=O)=O,-4.061%
Cc1noc(C)c1CN(C)CC(=O)NCC1CC1,-10.39%
OCC12CCN(CC1)CC2,-7.303%
COCCCNC(=O)N1CCCCC1CNS(C)(=O)=O (centres unmarked),10.77%
Nc1nnc(SCc2ccno2)s1,-1.422%
CCS(=O)(=O)N1CC(C(=O)N(C)C)Oc2ccccc21 (centres unmarked),2.758%
CS(=O)(=O)NCCC1CCCCN1CC1CCNCC1 (centres unmarked),0.9346%
CCC(=O)N1CCCN(C(=O)C2(N)CCCCC2)CC1,-20.36%
CCNCCCC1CCNCC1,16.42%

The first 6 entries again:

compound,Percent Effect
Cc1cccc(CC(=O)N2CCn3cnnc3C2)c1,26.59%
CCc1ccsc1C(=O)Nc1c(C(N)=O)n[nH]c1C,-0.02724%
CCN(CC1CCCO1)C(=O)CCCc1cn[nH]c1 (centres unmarked),-3.592%
CCOc1ccccc1CNCCSc1nnnn1C,1.515%
CC(C)CC(NC(=O)C1CC1)C(=O)N(C)C (centres unmarked),-13.74%
CN(CCCNc1ncc(C(N)=O)cc1Cl)S(C)(=O)=O,-3.33%

Source: ChEMBL document CHEMBL3988442, “University of Dundee, Small-Polar-MMV Screening Library” (2021).